# Source: patent US20100331311A1 (priority 2005, published 2010)
# Where “and” joins values, the source holds several entries; their conditions need not be identical. Equal values may be shown once.
# Assays:
# [1] = test system: glaucomatous and normal (contralateral) eyes; parameters: species or system Brown Norway rats; settings: rat, in vivo
# Method: IOP from glaucomatous and normal (contralateral) eyes was measured in awake animals using a calibrated tonometer (TonoPen XL, Medtronic Solan, Jacksonville, Fla.). Ten to fifteen consecutive readings per eye were taken and averaged to obtain an accurate daily IOP measurement. IOP was measured daily for two weeks after ocular hypertension surgery, and then every other day for the entire duration of the experiment. The mean IOP (mm Hg±S.E.M.) per eye was the average of all IOP readings since the onset of pressure elevation. The maximum IOP measured in each individual eye, glaucomatous or normal contralateral eye, was defined as the peak IOP and this value was used to estimate the mean peak IOP for each group. The delta positive integral IOP was calculated as the area under the IOP curve in the glaucomatous eye minus that of the fellow normal eye from ocular hypertension surgery to euthanasia. Integral IOP represents the total, cumulative IOP exposure throughout the entire experiment.
# For this purpose, Applicant measured intraocular pressure every other day for entire duration of daily treatment with galantamine up to 35 days after ocular hypertension (OHT) surgery.
# [2] = test system: retinal ganglion cells (RGCs); parameters: species or system Brown Norway rats; settings: rat, in vivo
structure (smiles),measurement,setting,value
"COc1cc2c(cc1OC)C(=O)C(CC1CCN(Cc3ccccc3)CC1)C2 (stereo not drawn) [Donepezil, donepezil]",effect on intraocular pressure (in words),[1],significantly reduced the IOP in glaucomatous eyes
same,Integral IOP,[1]; 3.5 mg/kg,246 mm Hg and 246 ± 7 mm Hg
same,Mean IOP Control,[1]; 3.5 mg/kg,22.07 ± 0.6 mm Hg
same,Mean IOP Difference,[1]; 3.5 mg/kg,9.7 mm Hg and 9.7 ± 0.8 mm Hg
same,Mean IOP Glaucoma,[1]; 3.5 mg/kg,31.7 ± 1.5 mm Hg
same,"neuroprotection of RGCs in experimental glaucoma, galantamine vs donepezil (in words)",[2],confer neuroprotection on retinal ganglion cells in glaucoma
